In the supplement of paper PMC11348887:
Structures can show the parent of a compound that is named as a salt. The list shows a part of the results. Most entries show no effect beyond the scatter of the controls.

Columns and labels:
Conditions in all cases: 5 µM; treatment: days 7-14 after plating, readout day 21
[1] = test system: hPSC-derived cortical neurons (WA09); assay: nucleus area z-score vs screen plate; higher = larger nuclei (more mature)
[2] = test system: hPSC-derived cortical neurons (WA09); assay: total neurite length per nucleus (MAP2) z-score; higher = more neurite growth
[3] = test system: hPSC-derived cortical neurons (WA09); assay: nucleus roundness z-score vs screen plate; higher = rounder nuclei (more mature)
[4] = test system: hPSC-derived cortical neurons (WA09); assay: KCl-induced FOS+/EGR-1+ double-positive nuclei fraction z-score (KCl minus unstimulated); higher = stronger activity-induced IEG response

Compound	nucleus area z-score [1]	total neurite length per nucleus (z-score) [2]	nucleus roundness z-score [3]	KCl-induced FOS+/EGR-1+ double-positive nuclei fraction z-score [4]
COc1cc(/C=C/C(=O)N2CCC=CC2=O)cc(OC)c1OC [Piperlongumine]	-3.94	-0.545	-0.312	0.0651
CCCCCCCCCCCC[N+](C)(C)CCOc1ccccc1 [Domiphen Bromide]	-14.1	-4.58	-5.88	-0.127
CCOC(=O)Nc1ccc(NCc2ccc(F)cc2)nc1N [Flupirtine maleate]	-0.0717	0.374	-0.0529	-0.191
CC(C)(CO)C(O)C(=O)NCCC(=O)O [Calcium D-Panthotenate]	-0.359	0.291	-0.791	-0.0311
C=CC(=O)Nc1ccc2ncnc(Nc3ccc(OCc4cccc(F)c4)c(Cl)c3)c2c1	-4.09	-1.37	-2.94	-2.84
Clc1cccc(Cl)c1NC1=NCCN1 [Clonidine HCl]	1.5	1.13	1.02	4.43
N=C(N)c1ccc(OCCCCCOc2ccc(C(=N)N)cc2)cc1 [Pentamidine]	-2.74	-5.62	-7.44	-2.06
NC1(Cc2ccc(Cl)cc2)CCN(c2ncnc3[nH]ccc23)CC1	-0.152	-1.4	-1.34	-2.08
NC(CO)(CO)CO [Trometamol]	-0.781	0.166	-0.0767	-0.0364
Cc1cc(C(C)Nc2ccccc2)c2nc(N3CCOCC3)cc(=O)n2c1 (centres undefined)	2.04	1.31	1.07	0.495
O=C1O[C@H]([C@@H](O)CO)C([O-])=C1O.[Na+] [Sodium ascorbate]	0.425	0.546	0.0315	1.21
Cc1ccc([N+](=O)[O-])cc1S(=O)(=O)N(C)/N=C/c1cnc2ccc(Br)cn12	-6.41	-2.64	-4.52	-0.949
C=CCc1ccc(O)c(-c2cc(CC=C)ccc2O)c1 [Magnolol]	0.565	0.0318	-0.0745	0.268
Oc1c(Cl)cc(Cl)c(Cl)c1Cc1c(O)c(Cl)cc(Cl)c1Cl [Hexachlorophene]	-0.172	4.28	-1.32	0.255
Cc1ncc([N+](=O)[O-])n1CCO [Metronidazole]	0.649	-0.789	-0.542	-0.621
CN(C)[C@@H]1C(O)=C(C(N)=O)C(=O)[C@@]2(O)C(O)=C3C(=O)c4c(O)ccc(Cl)c4[C@@H](O)[C@H]3C[C@@H]12 [Demeclocycline HCl]	1.22	-0.408	-0.145	0.146

Full records from above:
O=C1O[C@H]([C@@H](O)CO)C([O-])=C1O.[Na+] [Sodium ascorbate] in the list: nucleus area z-score [1]: 0.425; total neurite length per nucleus (z-score) [2]: 0.546; nucleus roundness z-score [3]: 0.0315; KCl-induced FOS+/EGR-1+ double-positive nuclei fraction z-score [4]: 1.21
NC(CO)(CO)CO [Trometamol] in the list: nucleus area z-score [1]: -0.781; total neurite length per nucleus (z-score) [2]: 0.166; nucleus roundness z-score [3]: -0.0767; KCl-induced FOS+/EGR-1+ double-positive nuclei fraction z-score [4]: -0.0364

(more compounds)

Compound	nucleus area z-score [1]	total neurite length per nucleus (z-score) [2]	nucleus roundness z-score [3]	KCl-induced FOS+/EGR-1+ double-positive nuclei fraction z-score [4]
CCCNC(=O)Nc1ccc(Oc2ncnc3cc(OC)c(OC)cc23)cc1Cl	2.13	0.134	-0.716	-0.636
CCc1cc(Nc2nccc(-c3c(-c4ccc(OC)c(C(=O)Nc5c(F)cccc5F)c4)nc4ccccn34)n2)c(OC)cc1N1CCC(N2CCN(S(C)(=O)=O)CC2)CC1	-2.4	-1.83	-1.78	-0.687
O=c1cc(-c2ccc(O)cc2)oc2cc(O)cc(O)c12 [Apigenin]	1.45	-0.933	-0.817	-0.0755
CC(C)n1nc(-c2cc3cc(O)ccc3[nH]2)c2c(N)ncnc21	-1.37	-2.42	-3.75	-1.07
COc1c(C)c2c(c(O)c1C/C=C(\C)CCC(=O)O)C(=O)OC2 [Mycophenolic acid]	-1.09	0.4	0.338	0.452
CCOC(=O)C1=C[C@@H](OC(CC)CC)[C@H](NC(C)=O)[C@@H](N)C1 [Oseltamivir Phosphate]	0.802	0.428	-0.0957	0.884
CC(C)(Oc1ccc(C(=O)c2ccc(Cl)cc2)cc1)C(=O)O [Fenofibric acid]	0.451	-0.728	-0.104	-0.274
COc1cc(-c2cn(C)c(=O)c3cnccc23)cc(OC)c1CN(C)C	0.4	-0.175	0.568	0.0929
CCS(=O)(=O)c1cccc(-c2cc(C(=O)NC3CCN(C)CC3)c(C)c3[nH]c4ncc(C)cc4c23)c1	-18	-5.86	-14.8	-0.93
Cc1noc(C)c1-c1ccc(-c2cc(C(N)=O)c(NC(N)=O)s2)c(O[C@H]2CCNC2)c1	-1.2	-0.504	-0.22	0.727
CC(C(=O)O)c1cccc(C(=O)c2ccccc2)c1 (centres undefined) [Ketoprofen]	-0.405	0.949	0.33	0.499
Nc1nc(NC2CC2)cc(-c2cccc(Cl)c2Cl)n1	0.00532	-0.0206	-1.92	1.61
CCCCCCNC(=O)Nc1ccc(S(=O)(=O)Nc2ccc(CCNC[C@H](O)COc3ccc(O)cc3)cc2)cc1	-0.626	0.758	0.177	1.11
Cc1ccc(S(=O)(=O)c2ccc([N+](=O)[O-])o2)cc1	-4.73	-0.508	-1.13	1.3
FC(F)(F)C(Cl)Br (centres undefined) [Halothane]	-0.331	0.681	0.798	-0.345
